# Results as given in PubChem BioAssay AID624297 (National Center for Advancing Translational Sciences (NCATS), 2012).
# The campaign covered roughly 340,000 compounds. About 6,200 (1.8%) were called active. Inconclusive means that the source gave no clear call. Such entries were picked first, then a sample of the others. Calls follow the shape of the dose curve; as a rule, active = well fitted activation curve with a large enough effect; inconclusive = small, poorly fitted or top-dose-only effect; inactive = no such curve, though single readings can be large or run the other way. Potencies beside an inconclusive call are fits to weak or partial responses and may not hold up.
# Assay: A quantitative high throughput screen for small molecules that induce DNA re-replication in SW480 colon adenocarcinoma cells. Also: nearly all actives have a fitted effect of over 55% in size. As to re-replication activation: % of control where 0% means no effect.
# Conditions: Hoechst DNA content imaging, 48 h; re-replication activation: at 46.1 µM (top of the series)
# Outline: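 Per well, 250 cells were exposed to pinned compound for 48 hr. Nuclear DNA was visualised with Hoechst (40 min, 37 C) and total object intensity recorded by fluorescence scanning.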
# Potency is read from the fitted curve at half-maximal effect.
Structure (SMILES),re-replication activation,Potency
Cc1ccc(-n2c(SCC(=O)N(C)C3CCS(=O)(=O)C3)nc3ccccc3c2=O)c(C)c1 (stereo unspecified),inactive: -2.05%,–
CCCCc1ccc(NC(=O)CN2C(=O)NC(Cc3ccccc3)C2=O)cc1 (stereo unspecified),–,"inconclusive: 6.51 µM [activator, partial curve, poor fit]"
COc1ccc(C2c3ccc4ccccc4c3Oc3ncn(CCCN(C)C)c(=N)c32)cc1 (stereo unspecified),–,active: 11.6 µM
COc1ccc(-n2c(CNC(=O)COc3ccc(Cl)cc3Cl)n[nH]c2=S)cc1,–,"inconclusive: 29.1 µM [activator, single point]"
O=C(NCCc1nc2ccccc2[nH]1)c1ccc([N+](=O)[O-])cc1,–,"inconclusive: 0.58 µM [activator, full curve, poor fit]"
COc1ccccc1C(=O)N(Cc1ccccc1)c1ccc(C)cc1,–,"inconclusive: 29.1 µM [activator, single point]"
CC(C)(C)c1ccc(-c2cc(-c3ccccc3O)[nH]n2)cc1,–,"inconclusive: 29.1 µM [activator, single point]"
CCN1CCN(c2nc3c(c(=O)[nH]c(=O)n3C)n2Cc2ccccc2)CC1,–,"inconclusive: 18.4 µM [activator, single point]"
C[N+](C)(C)CCC(=O)N1C/C(=C/c2ccccc2)C(=O)/C(=C\c2ccccc2)C1,–,active: 0.731 µM
CN(Cc1ccccc1)C(=O)c1ccc(NC(=O)Cc2ccc(NC(=O)C3CCN(C(=O)C4CCCCC4)CC3)cc2)cc1,–,"inconclusive: 23.1 µM [activator, partial curve, poor fit]"
CN(C)S(=O)(=O)c1ccc(S(=O)(=O)N2CCCC(C(=O)NC3CCCC3)C2)cc1 (stereo unspecified),inactive: 0.268%,–
CCCn1c(CN2CCN(C(C)=O)CC2)nc2cc(S(=O)(=O)N(C)C)ccc21,–,"inconclusive: 20.6 µM [activator, single point]"
Cc1ccc(C)c(OCCC(=O)OC(C)C(=O)Nc2c(C)n(C)n(-c3ccccc3)c2=O)c1 (stereo unspecified),–,"inconclusive: 29.1 µM [activator, single point]"
Cc1csc(NC(=O)CSc2nnc(-c3ccoc3C)n2C(C)c2ccccc2)n1 (stereo unspecified),–,active: 14.6 µM
CCOC(=O)c1c(C)[nH]c(C(=O)OCC(=O)Nc2cc(Cl)ccc2OC)c1C,–,"inconclusive: 18.4 µM [activator, partial curve, poor fit]"
CC(=O)NC(CC(=O)Nc1cccc(S(=O)(=O)N2CCOCC2)c1)c1ccccc1 (stereo unspecified),–,"inconclusive: 14.6 µM [activator, single point]"
CCOC(=O)C1(CCSC)NC(c2ccco2)C2C(=O)N(CC)C(=O)C21 (stereo unspecified),inactive: -4.88%,–
COc1cc(C(=O)Nc2cccc(NC(=O)c3cccs3)c2)cc(OC)c1OC,–,"inconclusive: 2.91 µM [activator, full curve, poor fit]"
CCc1ccc2c(c1)c1nnc(NN)nc1n2CC,–,"inconclusive: 29.1 µM [activator, single point]"
CCc1c(C)nc2cc(-c3cccc(Br)c3)[nH]n2c1=O,–,"inconclusive: 1.84 µM [activator, full curve, poor fit]"
O=C1N(Cc2cccc(Cl)c2)C[C@@H]2C[C@@H](c3cccc4cccnc34)N3CCC[C@@]123,–,"inconclusive: 14.6 µM [activator, single point]"

Structure (SMILES),re-replication activation,Potency
O=C(CCNS(=O)(=O)c1cccc2nonc12)N1CCN(c2cccc(Cl)c2)CC1,–,"inconclusive: 32.6 µM [activator, single point]"
O=C(Nc1cccc(C(=O)Nc2ccc(Br)cc2)c1)c1ccccc1,inactive: 2.72%,–
CN(C(=O)c1cccc(NC(=O)Cc2ccccc2)c1)c1ccccc1,–,"inconclusive: 6.51 µM [activator, partial curve, poor fit]"
C=CCN=c1scc(-c2ccco2)n1/N=C/c1ccc(O)c(O)c1O,–,"inconclusive: 2.91 µM [activator, full curve]"
CCOC(=O)C1CCN(C(=O)Cn2nc(CC)n3cccc3c2=O)CC1,inactive: 12.8%,–
Cc1ccc(C)c(N2CCN(C(=O)C3CCC3)CC2)c1,inactive: 10.5%,–
O=C(Nc1ccc(Nc2ccccc2)cc1)c1ccccc1F,–,active: 4.61 µM
CCOC(=O)c1c(NC(=O)CSc2c[nH]c3ccccc23)sc2c1CCCC2,–,"inconclusive: 29.1 µM [activator, single point]"
c1ccc(-c2cn3c(n2)CCc2ccc4cccnc4c2-3)cc1,–,"inconclusive: 18.4 µM [activator, partial curve, poor fit]"
CCc1cc2cc(C)cc(C)c2[nH]c1=S,inactive: -6.34%,–
CCOc1ccc(CN2CCN(C(=O)c3cccc(F)c3)CC2)cc1,inactive: -1.65%,–
Cn1cc([N+](=O)[O-])c(C(=O)Nc2nc(-c3ccc(Cl)cc3)cs2)n1,–,active: 5.8 µM
CCCOc1ccc(N2C(=O)CC(N(Cc3ccc(OC)cc3)C(=S)Nc3ccccc3)C2=O)cc1 (stereo unspecified),–,"inconclusive: 0.146 µM [activator, full curve, poor fit]"
COc1ccc(CCC(=O)N2CCN(c3ccc([N+](=O)[O-])cc3)CC2)cc1OC,–,"inconclusive: 32.6 µM [activator, single point]"
CC1(C)Cc2c(c(N3CCCC3)nc3sc4c(N5CCN(CCO)CC5)ncnc4c23)CO1,–,"inconclusive: 29.1 µM [activator, single point]"
CN(Cc1ccco1)C(=O)c1ccc(CNS(=O)(=O)c2ccc3c(c2)C(C)(C)C(=O)N3C)cc1,–,"inconclusive: 25.9 µM [activator, partial curve, poor fit]"
CCOc1cc(C(N)=O)cc(Br)c1OC,inactive: 5.01%,–
Cc1nc(N/N=C/c2ccc(Br)cc2)cc(N2CCOCC2)n1,–,"inconclusive: 25.9 µM [activator, partial curve, poor fit]"
O=C(O)CCN1C(=O)c2ccc(NC(=O)Cc3ccc(Cl)cc3)cc2C1=O,–,"inconclusive: 32.6 µM [activator, partial curve, poor fit]"
COc1cc([N+](=O)[O-])cc(/C=N/NC(=O)C(C)Nc2cccc3ccccc23)c1O (stereo unspecified),–,"inconclusive: 20.6 µM [activator, single point]"

# Structures shown so far that contain an NH in an aromatic ring, in the order listed:
Structure (SMILES),re-replication activation,Potency
COc1ccc(-n2c(CNC(=O)COc3ccc(Cl)cc3Cl)n[nH]c2=S)cc1,–,"inconclusive: 29.1 µM [activator, single point]"
O=C(NCCc1nc2ccccc2[nH]1)c1ccc([N+](=O)[O-])cc1,–,"inconclusive: 0.58 µM [activator, full curve, poor fit]"
CC(C)(C)c1ccc(-c2cc(-c3ccccc3O)[nH]n2)cc1,–,"inconclusive: 29.1 µM [activator, single point]"
CCN1CCN(c2nc3c(c(=O)[nH]c(=O)n3C)n2Cc2ccccc2)CC1,–,"inconclusive: 18.4 µM [activator, single point]"
CCOC(=O)c1c(C)[nH]c(C(=O)OCC(=O)Nc2cc(Cl)ccc2OC)c1C,–,"inconclusive: 18.4 µM [activator, partial curve, poor fit]"
CCc1c(C)nc2cc(-c3cccc(Br)c3)[nH]n2c1=O,–,"inconclusive: 1.84 µM [activator, full curve, poor fit]"
CCOC(=O)c1c(NC(=O)CSc2c[nH]c3ccccc23)sc2c1CCCC2,–,"inconclusive: 29.1 µM [activator, single point]"
CCc1cc2cc(C)cc(C)c2[nH]c1=S,inactive: -6.34%,–
